Results are given in words; binding and its absence hold for the method and conditions named. Some results given as binding are weak or reduced against the parent protein; the word gives no strength.

The chains behind the UniProt entries cited, without tags or fusion partners.
UniProt P04690: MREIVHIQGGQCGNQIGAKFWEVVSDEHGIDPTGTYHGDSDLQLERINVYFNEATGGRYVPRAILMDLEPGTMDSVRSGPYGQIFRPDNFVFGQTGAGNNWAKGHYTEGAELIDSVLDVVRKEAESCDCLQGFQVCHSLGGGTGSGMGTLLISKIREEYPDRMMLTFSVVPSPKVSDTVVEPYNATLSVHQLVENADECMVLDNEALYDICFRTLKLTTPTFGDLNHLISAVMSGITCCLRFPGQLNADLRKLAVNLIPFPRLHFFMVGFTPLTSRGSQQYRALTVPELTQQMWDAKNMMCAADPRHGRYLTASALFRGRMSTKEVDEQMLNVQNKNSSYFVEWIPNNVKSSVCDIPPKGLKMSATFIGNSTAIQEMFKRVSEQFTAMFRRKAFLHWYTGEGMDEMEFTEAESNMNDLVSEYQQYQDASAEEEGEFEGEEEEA
UniProt B1B601: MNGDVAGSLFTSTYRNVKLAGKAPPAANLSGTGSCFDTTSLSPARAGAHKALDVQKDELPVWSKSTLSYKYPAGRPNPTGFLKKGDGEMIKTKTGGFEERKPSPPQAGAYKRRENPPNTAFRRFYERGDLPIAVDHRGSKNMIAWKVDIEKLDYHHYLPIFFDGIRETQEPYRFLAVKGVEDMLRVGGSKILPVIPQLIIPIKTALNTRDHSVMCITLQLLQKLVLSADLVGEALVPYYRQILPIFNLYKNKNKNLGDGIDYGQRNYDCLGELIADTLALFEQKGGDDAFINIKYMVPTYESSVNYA

The values that follow come from publication PMC6994238.

This assay has as its target β-tubulin, Chlamydomonas reinhardtii (Chlamydomonas reinhardtii) (UniProt P04690). As to the kind of experiment: cryo-EM structure; taxol-stabilised, 0.6 M NaCl-washed doublet microtubules isolated from Chlamydomonas flagella; 16 nm repeat map, focused refinement of the inner junction to 3.6 Å; atomic model PDB 6VE7.

Regarding “PArkin Co-Regulated Gene (PACRG), Chlamydomonas reinhardtii (from UniProt B1B601 1-307)”, the binding entry was “binds”.
